Source: patent JP2006523083A
Results are given in words; binding and its absence hold for the method and conditions named. Some binding calls cover weakened binding; strength is not graded here.

Target: T1, ビオチン化EpoR(Abbott CHO細胞由来 ref.#RB69084:4) (UniProt P19235)
T1 sequence (biotinylated with biotin-NHS (sites not stated), looked up): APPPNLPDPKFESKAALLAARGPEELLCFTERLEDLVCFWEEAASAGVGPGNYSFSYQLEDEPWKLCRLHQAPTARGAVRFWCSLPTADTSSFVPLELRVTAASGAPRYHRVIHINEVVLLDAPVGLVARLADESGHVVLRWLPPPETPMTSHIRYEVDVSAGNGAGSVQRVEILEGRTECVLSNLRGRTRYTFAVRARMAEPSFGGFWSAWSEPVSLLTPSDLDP
Assay: ELISA, biotin-EpoR on streptavidin plate, HEK293 supernatant, anti-human IgG Fc-HRP

Binder | binding
Ab12 (antibody, V domains shown) VH: QVQLQESGPGLVKPSETLSLTCTVSGASISSYYWSWIRQPPGKGLEWIGYIYYSGSTNYNPSLKSRVTISVDTSKNQFSLKLRSVTAADTAVYYCARERLGIGDYWGQGTLVTVSS VL: DIQLTQSPSSLSASVGDRVTITCRASQGIRNDLGWYQQKPGKAPKRLIYAASSLQSGVPSRFSGSGSGTEFTLTISSLQPEDFATYYCLQHNTYPPTFGQGTKVEIK | binds
Ab198 (antibody, V domains shown) VH: QVQLVESGGGVVQPGRSLRLSCVASGFTFSSYGMHWVRQAPGKGLEWVAVISYDGSNKYYADSVKGRFTISRDNSKNTLYLQMNSLRVEDTAVYYCARDHGGRYVYDYGMDVWGQGTTVTVSS VL: DIQMTQSPSSVSASIGDRVSITCRASQGISSWLAWYQQKPGKAPTLLIYAASTLQRGVPSRFSGSGSGTDFTLTISSLQPEDFATYFCQQANSFPFTFGPGTKVDIK | binds
